Experimental data: PubChem BioAssay AID1508597 (Cure First, 2020)
Purpose: 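Knock-downs altering ovarian cancer cell survival with or without PARP inhibitor rucaparib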 (primary screen). System: human ovarian carcinoma lines grown from tumours: OCI-P5x (papillary serous) and OCI-C5x (clear cell). Reagents: siRNA pool against human genes, 1.25 pmol siRNA per well. Timing: 72 h or 96 h, depending on the cell culture. Treatment: rucaparib 20 µM (about IC30) or vehicle, present until read-out. Rucaparib or vehicle: Rucaparib. Cell line: OCI-P5x (serous). Measurement: 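ATP luminescence measured at 72 or 96 h according to the culture, then normalised and expressed as percent viability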. Scale: viability, normalised: higher = more viable cells remaining. Rule for the call: 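a well counts as a hit if its normalised viability is under 80 percent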. Meaning of the calls: active = viability under 80%; inactive = viability 80% or more.
This is an unselected part of the about 2,100 reagents, in one setting of the screen. 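Calls flag viability under 80% in either arm, not effects specific to rucaparib; the reference for percent is not stated.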 Unmarked entries are inactive. Reagents against one gene are numbered here. Not given: the 100% reference.

gene | reagent | technical replicate | viability, normalised (%)
FCSK | 1 | 1 | 68.7 (active)
FCSK | 1 | 2 | 47.9 (active)
FCSK | 1 | 3 | 49.4 (active)
FN3K | 1 | 1 | 104
FN3K | 1 | 2 | 107
FN3K | 1 | 3 | 95.2
ACVRL1 | 1 | 1 | 82
ACVRL1 | 1 | 2 | 62.5 (active)
ACVRL1 | 1 | 3 | 80.8
TRIP13 | 1 | 1 | 53.4 (active)
TRIP13 | 1 | 2 | 45.7 (active)
TRIP13 | 1 | 3 | 62.6 (active)
CHMP4A | 1 | 1 | 81.3
CHMP4A | 1 | 2 | 73.7 (active)
CHMP4A | 1 | 3 | 73.9 (active)
ATP5F1D | 1 | 1 | 80.9
ATP5F1D | 1 | 2 | 74.7 (active)
ATP5F1D | 1 | 3 | 71.3 (active)
TP53RK | 1 | 1 | 65.7 (active)
TP53RK | 1 | 2 | 61.2 (active)
TP53RK | 1 | 3 | 68.5 (active)
AUNIP | 1 | 1 | 55.7 (active)
AUNIP | 1 | 2 | 60.4 (active)
AUNIP | 1 | 3 | 56.6 (active)
KDM4D | 1 | 1 | 47.5 (active)
KDM4D | 1 | 2 | 44.7 (active)
KDM4D | 1 | 3 | 45.9 (active)
NFRKB | 1 | 1 | 48.7 (active)
NFRKB | 1 | 2 | 63 (active)
NFRKB | 1 | 3 | 64.2 (active)

Ordered by “viability, normalised (%)” (high to low): 8 of the entries above
gene | reagent | technical replicate | viability, normalised (%)
NFRKB | 1 | 3 | 64.2 (active)
NFRKB | 1 | 2 | 63 (active)
AUNIP | 1 | 2 | 60.4 (active)
AUNIP | 1 | 3 | 56.6 (active)
NFRKB | 1 | 1 | 48.7 (active)
KDM4D | 1 | 1 | 47.5 (active)
KDM4D | 1 | 3 | 45.9 (active)
KDM4D | 1 | 2 | 44.7 (active)

The list goes on.
gene | reagent | technical replicate | viability, normalised (%)
PIM2 | 1 | 1 | 76.6 (active)
PIM2 | 1 | 2 | 72.4 (active)
PIM2 | 1 | 3 | 60.4 (active)
SRPK3 | 1 | 1 | 86.6
SRPK3 | 1 | 2 | 76.8 (active)
SRPK3 | 1 | 3 | 85.3
NCOA3 | 1 | 1 | 42.3 (active)
NCOA3 | 1 | 2 | 55.1 (active)
NCOA3 | 1 | 3 | 48.4 (active)
CDKL4 | 1 | 1 | 86.3
CDKL4 | 1 | 2 | 32.5 (active)
CDKL4 | 1 | 3 | 80.6
CARMIL1 | 1 | 1 | 58.1 (active)
CARMIL1 | 1 | 2 | 59.6 (active)
CARMIL1 | 1 | 3 | 66.2 (active)
WNT7A | 1 | 1 | 83.4
WNT7A | 1 | 2 | 77.3 (active)
WNT7A | 1 | 3 | 72.3 (active)
SLX1A | 1 | 1 | 78 (active)
SLX1A | 1 | 2 | 79.2 (active)
SLX1A | 1 | 3 | 96.6
F10 | 1 | 1 | 39.6 (active)
F10 | 1 | 2 | 43.6 (active)
F10 | 1 | 3 | 63.5 (active)
IP6K3 | 1 | 1 | 117
IP6K3 | 1 | 2 | 117
IP6K3 | 1 | 3 | 109
IP6K3 | 2 | 1 | 71.3 (active)
IP6K3 | 2 | 2 | 92.7
IP6K3 | 2 | 3 | 107
